From patent US20140186363A1

Target: DHFR
Assay: ELISA, plates coated with recombinantly expressed antigen

binding: no binding
B1: 122G3 (antibody, V domains shown)
VH: QVQLVQSGAEVKKPGASVKVSCKASGYTFTNYAIHWVRQAPGQRLEWMGWINAGKGNTKYSQKFQGRVTITRDTSADTTYMELSSLRSEDTAVYFCAQAGLSSGLYRDYWGQGTPVTVSS
VL: EIVMTQSPATLSVSPGERATLSCRASQSVSSDLAWYQQKRGQAPRLLIYGASTRATGIPARFSGSGSGTEFTLTISSLQSEDFAVYWCQQYNDWPLTFGGGTKVEIN

Results are given in words; binding and its absence hold for the method and conditions named.
